Assay results from US20040229898A1, “Cyclic bis-compounds clearing malformed proteins” (priority 2001, published 2004).
Some results were stated once for a whole list of compounds, not compound by compound.

System: N2a cells
Assay: Cell viability assay (MTT) in uninfected N2a cells
Assay type: cell-based, mouse
Settings: up to 500 nM
Description: Uninfected N2a cells were identically seeded onto six-well plates containing MEM (3 mL, supplemented as above). […] Medium was exchanged, together with the compound, every three days. After seven days, thiazolyl blue (300 μL, MTT, 3-[4,5-dimethylthiazol-2-yl]-2,5-diphenyltetrazolium bromide, Sigma-Aldrich) in PBS (5 mgmL^−1), previously sterile filtered, was added. Cells were incubated at 37° C. for 5 h. The medium was removed, and DMSO (3 mL) was added and repeatedly aspirated to solubilize the converted dye.

SMILES | N2a cells remained viable [%]
COc1ccc2nc3cc(Cl)ccc3c(NCCCN3CCN(CCCNc4c5ccc(Cl)cc5nc5ccc(OC)cc45)CC3)c2c1 [Compound 11, (6-chloro-2-methoxy-acridin-9-yl)-(3-{4-[3-(6-chloro-2-methoxy-acridin-9-ylamino)-propyl]-piperazin-1-yl}-propyl)-amine] | > 85
COc1ccc2nc3cc(Cl)ccc3c(NCCOCCOCCNc3c4ccc(Cl)cc4nc4ccc(OC)cc34)c2c1 [Compound 13, N,N′-Bis-(6-chloro-2-methoxy-acridin-9-yl)-1,8-diamino-3,6-dioxaoctane] | > 85
COc1ccc2nc3cc(Cl)ccc3c(NCCCCN(CCCNc3c4ccc(Cl)cc4nc4ccc(OC)cc34)C(=O)C(C)NC(=O)OC(C)(C)C)c2c1 (stereo not drawn) [Compound 17, (1-{[4-(6-chloro-2-methoxy-acridin-9-ylamino)-butyl]-[3-(6-chloro-2-methoxy-acridin-9-ylamino)-propyl]-carbamoyl}-ethyl)-carbamic acid tert-butyl ester] | > 85
